# Article PMC9051519
# No constants are given. Whether binding was seen depends on the method and setting. Binding seen in cells or lysates may run through a third protein. A yes stands for co-enrichment or nearness to the bait. Other partners may have been found. Where a sequence is shown, tags or fusion partners need not be part of it.
# T1: FLAG-Cas1 fusion protein (Haloferax volcanii) (UniProt D4GQP0)
# T1 sequence: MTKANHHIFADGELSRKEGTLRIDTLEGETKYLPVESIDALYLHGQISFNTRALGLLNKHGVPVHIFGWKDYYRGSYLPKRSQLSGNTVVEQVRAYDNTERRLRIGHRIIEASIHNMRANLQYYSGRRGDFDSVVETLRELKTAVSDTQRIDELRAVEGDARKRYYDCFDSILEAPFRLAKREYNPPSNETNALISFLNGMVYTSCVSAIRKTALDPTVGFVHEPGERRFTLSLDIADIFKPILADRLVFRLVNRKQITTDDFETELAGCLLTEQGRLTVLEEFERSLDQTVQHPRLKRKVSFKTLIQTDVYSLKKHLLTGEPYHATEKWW
# Target: T1, FLAG-Cas1 fusion protein (Haloferax volcanii)
# Assay: affinity purification with mass spectrometry; FLAG-Cas1 expressed in H. volcanii Δcas1; S100 lysate treated with DNase and RNase A, 150 mM NaCl; anti-FLAG M2 affinity gel overnight at 4°C, washed with 50 mM Tris/HCl pH 7.4, 150 mM NaCl, eluted with 3xFLAG peptide; gel filtration (Superdex 75 Increase), fractions with Cas1 at about 670 kDa analysed by MS; two FLAG-Cas1 purifications, one FLAG-only control
row,binding,Binder
1,binds,"ATP-dependent DNA helicase Hel308a (enzyme, UniProt D4GYK9 1-827) MRTADLTGLPTGIPEALRDEGIEELYPPQAEAVEAGLTDGESLVAAVPTASGKTLIAELAMLSSVARGGKALYIVPLRALASEKKAEFERWEEYGIDVGVSTGNYESDGEWLSSRDIIVATSEKVDSLVRNNAAWMDQLTCVVADEVHLVDDRHRGPTLEVTLAKLRRLNTNLQVVALSATVGNAGVVSDWLDAELVKSDWRPIDLKMGVHYGNAVSFADGSQREVPVGRGERQTPALVADALEGDGEGDQGSSLVFVNSRRNAESAARRMADVTERYVTGDERSDLAELAAEIRDVSDTETSDDLANAVAKGAAFHHAGLAAEHRTLVEDAFRDRLIKCICATPTLAAGVNTPSRRVVVRDWQRYDGDYGGMKPLDVLEVHQMMGRAGRPGLDPYGEAVLLAKDADARDELFERYIWADAEDVRSKLAAEPALRTHLLATVASGFAHTREGLLEFLDQTLYATQTDDPERLGQVTDRVLDYLEVNGFVEFEGETIQATPVGHTVSRLYLDPMSAAEIIDGLEWAADHRTEKLRALAGETPEKPTRDRSESDESGGFQRASEMVADDGDGGGGEDGVGANGDGDSDDADGVETDRTYPTPLGLYHLVCRTPDMYQLYLKSGDRETYTELCYEREPEFLGRVPSEYEDVAFEDWLSALKTAKLLEDWVGEVDEDRITERYGVGPGDIRGKVETSEWLLGAAERLATELDLDSVYAVREAKKRVEYGVREELLDLAGVRGVGRKRARRLFEAGVETRADLREADKPRVLAALRGRRKTAENILEAAGRKDPSMDAVDEDDAPDDAVPDDAGFETAKERADQQASLGDFE"
2,binds,"ATP-dependent DNA helicase MCM (enzyme, UniProt D4GZG5 1-702) MAQAPQNRDLTERFIEFYRNYYREEIGTLAQQYPKEKRSLHIDYDDLYRFDSELADDYITKPGQFQEYAEEALRLFDLPADVKLGQAHVRMRNLPETVDIRNLRVNDDHIGTLISVQGIVRKATDVRPKITEAAFECQRCGTMSYIPQGDGGFQEPHECQGCERQGPFRIDFDQSNFVDSQKLRVQESPEGLRGGETPQSIDINLSDDVTGKVTAGDHVTVVGVLHIEQQTSGNEKTPVFDYYMEGISLTIEDEEFEDMEISDEDVAEIVELSNDPAIYEKMVESVAPAIYGYEQEKIAMILQLFSGVTKHLPDGSRIRGDLHMLLIGDPGTGKSQMLSYIRHIAPRSVYTSGKGSSSAGLTAAAVRDDFGDGQQWTLEAGALVLADKGIAAVDELDKMRPEDRSAMHEGLEQQQISVSKAGINATLKSRCSLLGAANPKYGRFDQYEPIGEQIDLEPALISRFDLIFTVTDDPDPDEDSKLADHILKTNYAGELNTQRTNVANSEFTEQQVDAVTDEVAPTIDADLLRKYIAYAKRTCYPTMTDEAKEVIRDFYVDFRARGADEDAPVPVTARKLEALVRLGEASARVRLSDKVTREDAERVTGIVESCLRDIGMDPETGEFDADIVETGRSKTQRDRIKNLLELIRTMQEEYEEGAPHEEVLERANSELNMDEKTVNDQLDKLKMKGDIYEPRGDVYRAT"
3,binds,"ribonuclease J (enzyme, UniProt D4GW49 1-450) MEIEIATIGGYEEVGRQMTAVRAGDDVVVFDMGLNLSQVLIHDNVETEKMHSLDLIDMGAIPDDRVMSDLEGDVQAIVPTHGHLDHIGAISKLAHRYDAPVVATPFTIELVKQQIEGENKFNVNNDLVKMEAGETMSIGDSGNVELEFVHVTHSIIDAINPVVHTPEGAVVYGLDKRMDHSPVLEDPIDMKRFREIGREGNGVLAYIEDCTNAGRKGRTPSESVARRHLKDVMTSVEDYDGGIVATTFSSHISRVSSLVEFAKDIGRQPVLLGRSMEKYSGTAERLGFVDLPDDLGMYGHRKSVDRTFKRIMKEGKENYLPIVTGHQGEPRAMLTRMGRGETPYEIDDGDKVIFSARVIPEPTNEGQRYQSERLLRMQGARIYDEIHVSGHLREEGHYEMLQALQPQHVIPAHQNLKGFAPYVDLAESQGYALGRDLHVTRNGNMIQLVE"
